Source: doi:10.1371/journal.pone.0140310, primary screening data, rounded.

All values are for the listed drug together with vorinostat (0.08 µM): O=C(CCCCCCC(=O)Nc1ccccc1)NO

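Human melanoma cells were exposed to a pair of drugs for 72 h in 1,536-well plates and read by automated microscopy after fixing and staining. The read-out is cell count (nuclei) in % of the DMSO control; lower values mean stronger growth inhibition or killing. Concentrations were fixed for each drug; these are the lower of two levels, a fifth of the higher. These are primary screening values without error estimates.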 This is part of the screen, not chosen by result. A dash means that no value is listed here.

| # | Second drug | A2058 | LB2518-MEL | COLO 792 | IST-MEL1 | C32 | MEL-HO | G-361 | A375 | COLO 829 | IPC-298 |
|---|---|---|---|---|---|---|---|---|---|---|---|
| 1 | C[C@]1(O)C[C@@H](c2nc(-c3ccc4ccc(-c5ccccc5)nc4c3)c3c(N)nccn32)C1 at 0.4 µM | 109 | 91.1 | 115 | 101 | 106 | 89.6 | 82.8 | 80.2 | 81.4 | 94.1 |
| 2 | Oc1nc(-c2ccc(C(F)(F)F)cc2)nc2c1CSCC2 at 2 µM | 83.2 | 120 | 89.5 | 94.1 | 78.9 | 95.1 | 84.9 | 108 | 82.6 | 94.4 |
| 3 | O=C(O)C(=O)Nc1sc2c(c1C(=O)O)CCNC2 at 1.67 µM | 117 | 105 | 93.8 | 93.8 | 90.3 | 90.5 | 104 | 108 | 92.2 | 105 |
| 4 | Cn1cc(/C=C2\C(=O)Nc3cccnc32)c2ccccc21 at 0.4 µM | 120 | 101 | 109 | 96.2 | 109 | 88.0 | 95.4 | 105 | 97.0 | 96.8 |
| 5 | O=C(Oc1ccc([N+](=O)[O-])cc1)N1CCC(C(O)(c2ccc3c(c2)OCO3)c2ccc3c(c2)OCO3)CC1 at 1 µM | 92.6 | - | 106 | 99.3 | 94.4 | 102 | 99.5 | 104 | 102 | 96.9 |
| 6 | C=CCn1c(=O)c2cnc(Nc3ccc(N4CCN(C)CC4)cc3)nc2n1-c1cccc(C(C)(C)O)n1 at 0.02 µM | 87.4 | 86.3 | 94.0 | 99.2 | 101 | 96.3 | 83.5 | 92.8 | 83.7 | 97.6 |
| 7 | O=C1NC(=O)/C(=C/c2ccc(-c3ccc(F)cc3O)o2)S1 at 1 µM | 112 | 89.3 | 95.5 | 98.3 | 112 | 85.3 | 92.8 | 88.5 | 106 | 96.6 |
| 8 | Cn1c(=O)n(-c2ccc(C(C)(C)C#N)cc2)c2c3cc(-c4cnc5ccccc5c4)ccc3ncc21 at 0.004 µM | 93.6 | 119 | 92.6 | 98.5 | 95.4 | 85.5 | 111 | 110 | 109 | 104 |
| 9 | CCCCCCCCCCCC1=C(O)C(=O)C=C(O)C1=O at 1.2 µM | 95.4 | 99.1 | 90.5 | 96.4 | 86.7 | 97.9 | 110 | 119 | 106 | 93.0 |
| 10 | COc1ccc(COc2ccc(Cc3cnc(N)nc3N)cc2OC)cc1 at 1 µM | 109 | 99.8 | 107 | 90.7 | 112 | 98.3 | 96.0 | 117 | 93.5 | 104 |
| 11 | Cn1cnc2c(F)c(Nc3ccc(Br)cc3Cl)c(C(=O)NOCCO)cc21 at 0.015 µM | 113 | 70.5 | 87.8 | 90.3 | 95.0 | 92.6 | 99.8 | 97.1 | 128 | 79.1 |
| 12 | CCc1ccc(CCOc2ccc(CC3SC(=O)NC3=O)cc2)nc1 (stereo unspecified) at 2 µM | 103 | 103 | 108 | 102 | 103 | 92.5 | 111 | 112 | 120 | 105 |
| 13 | Cc1cc([N+](=O)[O-])ccc1NS(=O)(=O)c1cc(Cl)ccc1Cl at 1 µM | 85.3 | 90.8 | 93.3 | 84.0 | 104 | 68.7 | 92.3 | 110 | 97.9 | 92.4 |
| 14 | O=C(Nc1ccccc1)c1cc([N+](=O)[O-])ccc1Cl at 2 µM | 101 | 122 | 99.9 | 103 | 101 | 80.6 | 94.8 | 116 | 93.6 | 96.6 |
| 15 | O=c1cc(-c2cccc3c2Sc2ccccc2S3)oc(N2CCOCC2)c1 at 1 µM | 106 | 102 | 96.5 | 107 | 97.1 | 117 | 92.0 | 88.3 | 122 | 102 |
| 16 | COc1ccc(-c2ccc3c(N4CCOCC4)nc(N4C[C@@H](C)O[C@@H](C)C4)nc3n2)cc1CO at 0.02 µM | 98.8 | 105 | 91.0 | 103 | 91.8 | 92.3 | 108 | 125 | 74.1 | 94.8 |
| 17 | CC(C)C[C@H](NC(=O)[C@H](Cc1ccccc1)NC(=O)c1cnccn1)B(O)O at 0.001 µM | 89.5 | 39.5 | 103 | 83.6 | 108 | 91.0 | 6.6 | 104 | 84.1 | 84.2 |
| 18 | CN1CCN(c2ccc3nc(-c4c(N)c5c(F)cccc5[nH]c4=O)[nH]c3c2)CC1 at 0.1 µM | 94.9 | 93.0 | 91.8 | 105 | 106 | 96.1 | 95.8 | 114 | 80.8 | 105 |

2 of the entries, repeated:

Second drug,A2058,LB2518-MEL,COLO 792,IST-MEL1,C32,MEL-HO,G-361,A375,COLO 829,IPC-298
C=CCn1c(=O)c2cnc(Nc3ccc(N4CCN(C)CC4)cc3)nc2n1-c1cccc(C(C)(C)O)n1 at 0.02 µM,87.4,86.3,94.0,99.2,101,96.3,83.5,92.8,83.7,97.6
CCCCCCCCCCCC1=C(O)C(=O)C=C(O)C1=O at 1.2 µM,95.4,99.1,90.5,96.4,86.7,97.9,110,119,106,93.0